Results as given in patent US20100167931A1, “HETEROCYCLICALLY SUBSTITUTED HETEROCYCLYLCARBOXYLIC ACID DERIVATIVES” (Bayer CropScience AG, priority 2007, published 2010).
Some results were stated once for a whole list of compounds, not compound by compound.

Key:
Format in all cases: in vivo
[1] = tested on: Botrytis cinerea; assay: Botrytis test (cucumber)/protective; conditions: concentration of 500 ppm, protective, evaluation 5-6 days after inoculation
[2] = tested on: green peach aphid (Myzus persicae); assay: Myzus test (spray treatment); conditions: application rate of 500 g/ha, chinese cabbage discs
[3] = tested on: greenhouse red spider mite (Tetranychus urticae); assay: Tetranychus test, OP-resistant (spray treatment); conditions: application rate of 500 g/ha, bean leaf discs
[4] = tested on: Meloidogyne incognita; assay: Meloidogyne test (spray treatment); conditions: lettuce
[5] = tested on: larvae of the mustard beetle (Phaedon cochleariae); assay: Phaedon test (spray treatment); conditions: application rate of 500 g/ha, chinese cabbage discs
[6] = tested on: Puccinia recondita; assay: Puccinia test (wheat)/protective; conditions: concentration of 500 ppm, protective, evaluation 8-10 days after inoculation
[7] = tested on: Lucilia cuprina larvae; assay: Lucilia cuprina test; conditions: application rate of 100 ppm
[8] = tested on: Sphaerotheca fuliginea; assay: Sphaerotheca test (cucumber)/protective; conditions: concentration of 500 ppm, protective, evaluation 7 days after inoculation

Structure (SMILES)	effectiveness [1]	efficacy (aphids killed) [2]	efficacy (beetle larvae killed) [5]	also measured
Cc1cc(C)n(-c2c(Cl)nc3c(C(=O)O)cnn3c2NC(C)C)n1 [Example I-1, 5-Chloro-6-(3,5-dimethyl-1H-pyrazol-1-yl)-7-isopropylaminopyrazolo[1,5-a]pyrimidine-3-carboxylic acid]	≥ 70%			
Cc1cc(C)n(-c2c(Cl)nc3c(C(=O)NS(C)(=O)=O)cnn3c2NC(C)C)n1 [Example I-2, N-[5-Chloro-6-(3,5-dimethyl-1H-pyrazol-1-yl)-7-isopropylaminopyrazolo[1,5-a]pyrimidine-3-carbonyl]methanesulphonamide]	≥ 70%	≥ 80%		efficacy (spider mites killed) [3]: ≥ 80%; efficacy (nematicidal effect by gall formation) ([4]; concentration of 20 ppm): ≥ 80%
CC(C)Nc1c(-n2nc(C(F)(F)F)cc2C(F)(F)F)c(Cl)nc2c(C(=O)NS(C)(=O)=O)cnn12 [Example I-3]	≥ 70%	≥ 80%	≥ 80%	effectiveness [6]: ≥ 70%
CC(C)C(C)Nc1c(-n2nc(C(F)(F)F)cc2C(F)(F)F)c(Cl)nc2c(C(=O)NS(C)(=O)=O)cnn12 (centres unmarked) [Example I-4]	≥ 70%	≥ 80%	≥ 80%	efficacy (kill of larvae) [7]: ≥ 80%; effectiveness [8]: ≥ 70%; effectiveness [6]: ≥ 70%
CC(C)Nc1c(-n2cc(Cl)cn2)c(Cl)nc2c(C(=O)NS(C)(=O)=O)cnn12 [Example I-5]	≥ 70%	≥ 80%		efficacy (nematicidal effect by gall formation) ([4]; concentration of 40 ppm*): ≥ 80%
O=C(O)c1cnn2c(NCC(F)(F)F)c(-n3nc(C(F)(F)F)cc3C(F)(F)F)c(Cl)nc12 [Example I-6]			≥ 80%	
CS(=O)(=O)NC(=O)c1cnn2c(NCC(F)(F)F)c(-n3nc(C(F)(F)F)cc3C(F)(F)F)c(Cl)nc12 [Example I-7]				efficacy (nematicidal effect by gall formation) ([4]; concentration of 20 ppm): ≥ 80%
CS(=O)(=O)NC(=O)c1cnn2c(NCC3CC3)c(-n3nc(C(F)(F)F)cc3C(F)(F)F)c(Cl)nc12 [Example I-8]	≥ 70%		≥ 80%	
Cc1nn(-c2c(Cl)nc3c(C(=O)NS(C)(=O)=O)cnn3c2NC(C)C)c(C)c1Cl [Example I-9]	≥ 70%	≥ 80%		
CCS(=O)(=O)NC(=O)c1cnn2c(NC(C)C)c(-n3cc(Cl)cn3)c(Cl)nc12 [Example I-10]	≥ 70%	≥ 80%	≥ 80%	effectiveness [6]: ≥ 70%
CC(C)C(C)Nc1c(-n2cc(Cl)cn2)c(Cl)nc2c(C(=O)NS(C)(=O)=O)cnn12 (centres unmarked) [Example I-11]	≥ 70%			effectiveness [6]: ≥ 70%
Cc1nc(-c2c(Cl)nc3c(C(=O)O)cnn3c2NC(C)C)c(C)s1 [Example I-12]	≥ 70%	≥ 80%		
Cc1nc(-c2c(Cl)nc3c(C(=O)NS(C)(=O)=O)cnn3c2NC(C)C)c(C)s1 [Example I-13]	≥ 70%	≥ 80%		
CC(C)Nc1c(-c2ncc(Cl)cc2Cl)c(Cl)nc2c(C(=O)O)cnn12 [Example I-14, 5-Chloro-6-(3,5-dichloropyridin-2-yl)-7-isopropylaminopyrazolo[1,5-a]pyrimidine-3-carboxylic acid]	≥ 70%		≥ 80%	
CC(C)Nc1c(-c2ncc(Cl)cc2Cl)c(Cl)nc2c(C(=O)NS(C)(=O)=O)cnn12 [Example I-15, N-[5-Chloro-6-(3,5-dichloropyridin-2-yl)-7-isopropylaminopyrazolo[1,5-a]pyrimidine-3-carbonyl]methanesulphonamide]	≥ 70%	≥ 80%	≥ 80%	efficacy (nematicidal effect by gall formation) ([4]; concentration of 20 ppm): ≥ 80%; effectiveness [8]: ≥ 70%; effectiveness [6]: ≥ 70%
CC(C)Nc1c(-c2ncc(F)cc2F)c(Cl)nc2c(C(=O)NS(C)(=O)=O)cnn12 [Example I-16]	≥ 70%	≥ 80%	≥ 80%	efficacy (nematicidal effect by gall formation) ([4]; concentration of 20 ppm): ≥ 80%; efficacy (kill of larvae) [7]: ≥ 80%; effectiveness [8]: ≥ 70%; effectiveness [6]: ≥ 70%
Cc1nn(C)c(C)c1-c1c(Cl)nc2c(C(=O)NS(C)(=O)=O)cnn2c1NC(C)C(F)(F)F (centres unmarked) [Example I-18]	≥ 70%	≥ 80%		
CC(C)Nc1c(-n2cc(Cl)cn2)c(Cl)nc2c(C(=O)O)cnn12 [Example I-22]	≥ 70%			
CC(C)Nc1c(-c2ncc(F)cc2F)c(Cl)nc2c(C(=O)O)cnn12 [Example I-26]	≥ 70%			effectiveness [6]: ≥ 70%

Structure (SMILES)	effectiveness [1]	efficacy (aphids killed) [2]	efficacy (beetle larvae killed) [5]	also measured
CC(C)Nc1c(-c2ncc(C(F)(F)F)cc2Cl)c(Cl)nc2c(C(=O)NS(C)(=O)=O)cnn12 [Example I-30]		≥ 80%	≥ 80%	
CC(C)Nc1c(-c2ncc(C(F)(F)F)cc2Cl)c(Cl)nc2c(C(=O)O)cnn12 [Example I-31]	≥ 70%			effectiveness [6]: ≥ 70%
CC(C)Nc1c(-c2ncccc2Cl)c(Cl)nc2c(C(=O)O)cnn12 [Example I-33]	≥ 70%			
CC(C)Nc1c(-c2ncccc2F)c(Cl)nc2c(C(=O)NS(C)(=O)=O)cnn12 [Example I-34]	≥ 70%	≥ 80%	≥ 80%	effectiveness [8]: ≥ 70%
CC(C)Nc1c(-c2ncccc2[N+](=O)[O-])c(Cl)nc2c(C(=O)NS(C)(=O)=O)cnn12 [Example I-36]		≥ 80%		efficacy (nematicidal effect by gall formation) ([4]; concentration of 20 ppm): ≥ 80%
CC(C)Nc1c(-c2ncc(F)cc2F)c(Cl)nc2c(C(=O)NS(=O)(=O)C3CC3)cnn12 [Example I-39]	≥ 70%	≥ 80%	≥ 80%	effectiveness [6]: ≥ 70%
CC(C)Nc1c(-c2ccncc2F)c(Cl)nc2c(C(=O)NS(C)(=O)=O)cnn12 [Example I-41]		≥ 80%		effectiveness [6]: ≥ 70%
Cc1nc(-c2c(Cl)nc3c(C(=O)O)cnn3c2NC(C)C(F)(F)F)c(C)s1 (centres unmarked) [Example I-43]	≥ 70%	≥ 80%		
Cc1nc(-c2c(Cl)nc3c(C(=O)NS(C)(=O)=O)cnn3c2NC(C)C(F)(F)F)c(C)s1 (centres unmarked) [Example I-44]	≥ 70%	≥ 80%		
Cc1nc(-c2c(Cl)nc3c(C(=O)NS(=O)(=O)C4CC4)cnn3c2NC(C)C(F)(F)F)c(C)s1 (centres unmarked) [Example I-45]	≥ 70%	≥ 80%	≥ 80%	effectiveness [6]: ≥ 70%
Cc1nc(-c2c(Cl)nc3c(C(=O)O)cnn3c2NCC(F)F)c(C)s1 [Example I-46]	≥ 70%			
Cc1nc(-c2c(Cl)nc3c(C(=O)NS(C)(=O)=O)cnn3c2NCC(F)F)c(C)s1 [Example I-47]		≥ 80%		
Cc1nc(-c2c(Cl)nc3c(C(=O)O)cnn3c2NCC(F)(F)F)c(C)s1 [Example I-48]		≥ 80%		
COCCS(=O)(=O)NC(=O)c1cnn2c(NC(C)C)c(-c3ncc(F)cc3F)c(Cl)nc12 [Example I-50]	≥ 70%	≥ 80%	≥ 80%	
COc1cccnc1-c1c(Cl)nc2c(C(=O)NS(C)(=O)=O)cnn2c1NC(C)C [Example I-54]		≥ 80%		
CC(C)Nc1c(-c2cnccn2)c(Cl)nc2c(C(=O)NS(C)(=O)=O)cnn12 [Example I-58]		≥ 80%		
CC(C)Nc1c(-c2ncc(C(F)(F)F)cc2F)c(Cl)nc2c(C(=O)NS(C)(=O)=O)cnn12 [Example I-60]		≥ 80%	≥ 80%	
CC(C)Nc1c(-c2ncc(F)cc2F)c(Cl)nc2c(C(=O)NS(=O)(=O)C3CCCC3)cnn12 [Example I-62]		≥ 80%		
CC(C)Nc1c(-c2ncccc2C(F)(F)F)c(Cl)nc2c(C(=O)NS(C)(=O)=O)cnn12 [Example I-63]		≥ 80%	≥ 80%	
